Assay results: patent US20160222085A1 (CHILDREN S HOSPITAL OF PHILADELPHIA, published 2016)
Results are given in words; binding and its absence hold for the method and conditions named. Some results given as binding are weak or reduced against the parent protein; the word gives no strength.

Legend:
[1] = target: T1, FV-810^R1545Q pretreated with thrombin (human, UniProt P12259 29-737; P12259 738-838; P12259 1520-2224); test: fluorescence anisotropy; thrombin-cleaved FV-810 variants
T1 construct: Cleaved only at Arg709: B-domain remnant stays tethered to the light chain; also called thrombin-cleaved FV-810^R1545Q

FV-810^QQ = target: T2, FV-810^QQ (human, UniProt P12259 29-838; P12259 1520-2224); test: fluorescence anisotropy; thrombin-pretreated FV-810 variants
T2 construct: range 1-810;range 1492-2196; Both thrombin sites (Arg709 and Arg1545) changed to Gln; the assay field says where thrombin pretreatment was used

B1: Oregon Green 488 maleimide-modified BR (OG488-BR) (peptide)
peptide: CSRAWGESTPLANKPGKQSGHPKFPRVRHKSLQVRQDGGKSRLKKSQFLIKTRKKKKEK
modifications: Oregon Green 488 maleimide on the added N-terminal Cys
B1 was tested. Which binding [1] did it give?
The binding was “binds”.

And the binding (FV-810^QQ)?
Its binding is “binds”.
